Values from PubChem BioAssay AID1224826 (NIAID, 2016).
Purpose: 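Regulators of Tlr4 signalling leading to Tnf-alpha expression in macrophages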 (primary screen). System: RAW264.7 G9 macrophages from mouse bearing reporters for p65 (GFP) and the Tnf promoter (mCherry). Reagent: siRNA pool against mouse genes, 100 nM. Duration: 16 h of LPS stimulation, after 2 days of siRNA transfection. Challenge: bacterial lipopolysaccharide (Salmonella minnesota R595), 10 ng/ml. Measurement: 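Imaged Tnf reporter mCherry in nuclei, minus background, normalised per plate to the median and expressed as robust z-scores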. Direction: Tnf reporter robust z-score: higher = stronger Tnf promoter reporter signal after LPS; Tnf reporter intensity: higher = stronger Tnf promoter reporter signal. Rule for the call: 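Called active when robust z-score is at most -1.3, matching the median of the Tlr4 knock-down control, or over 3; control wells and wells with under 50 cells never active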. Meaning of the calls: active = Tnf reporter clearly lowered or raised; inactive = no clear change in Tnf reporter.
In all, the deposit lists about 17,000 reagents; this is an unselected part. Of all reagents, about 1,110 (6.6%) are marked active. 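Active means lowered or raised reporter signal; replicate intensities are raw and not normalised per plate.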 A number with no mark means an inactive call. Some reagents were tested in more than one well and are listed for each.

Target gene	Tnf reporter robust z-score	fewer than 50 cells in well	Tnf reporter intensity, replicate 1	Tnf reporter intensity, replicate 2
Cmah	0.07	enough cells in well	191	149
Hecw2	0.39	enough cells in well	197	170
Yme1l1	0.08	enough cells in well	222	253
Sp110	-0.69	enough cells in well	121	92
Vkorc1		fewer than 50 cells per well; well left out of calls	46.3	76.9
Tspyl3	-0.47	enough cells in well	153	130
C1ql3		fewer than 50 cells per well; well left out of calls	86	99.5
Tbata	-0.65	enough cells in well	149	64.8
Smim5		fewer than 50 cells per well; well left out of calls	124	38.7
Med16	-0.17	enough cells in well	111	305
Tmem268	0.92	enough cells in well	246	180
Fthl17e	2.5	enough cells in well	529	203
Slc7a1	0.08	enough cells in well	134	71
Raver2		fewer than 50 cells per well; well left out of calls	81.4	76.9
Cyp2c37	-0.98	enough cells in well	142	151
Ppp1r11	-0.59	enough cells in well	205	147
Dynlt1b	-0.15	enough cells in well	219	129
1700018B08Rik	-0.13	enough cells in well	204	80.2
Dbh	-1.03	enough cells in well	140	160
Thg1l	0.34	enough cells in well	188	421
Tefm	-0.17	enough cells in well	272	65.6
Mea1	1.31	enough cells in well	260	222
Dynlrb2	-0.35	enough cells in well	209	177
Zscan22	1.21	enough cells in well	378	210
Ms4a4c	-0.05	enough cells in well	209	112
Eef1b2	-0.39	enough cells in well	196	204
Tomm34		fewer than 50 cells per well; well left out of calls	39	50.4
Hand2	-1.09	enough cells in well	109	156
Nrxn3	0.23	enough cells in well	234	136
Ctu1	-1.39 (active)	enough cells in well	48.8	108
4833439L19Rik		fewer than 50 cells per well; well left out of calls	234	166
Plppr4	-0.77	enough cells in well	45.4	109
Sh3bgrl2	-0.37	enough cells in well	106	142
Phax	1.18	enough cells in well	164	226
Mtmr2	-0.05	enough cells in well	301	168
Lrrc41	3	enough cells in well	385	320
Ugt3a2	-0.94	enough cells in well	150	119
1700129C05Rik		fewer than 50 cells per well; well left out of calls	98.5	37.7
Yod1	1.31	enough cells in well	236	296
Foxn1	0.41	enough cells in well	274	285
Or2a51	2.2	enough cells in well	169	209
Nop53	0.34	enough cells in well	282	194
Mmp15	-0.09	enough cells in well	201	245
1700008J07RIK		fewer than 50 cells per well; well left out of calls	99.4	36.6
Mvp	-0.6	enough cells in well	194	76.8
Isg20l2	1.18	enough cells in well	256	210
Prr5	-1.13	enough cells in well	105	92.3
Fbxl8	0.77	enough cells in well	298	181
Slc44a3	1.35	enough cells in well	313	287
Gid4	0.58	enough cells in well	221	166
Pms2	-0.75	enough cells in well	200	129
Cited4	0.06	enough cells in well	243	220
Il22ra2	-0.33	enough cells in well	201	143
Catsper4	-0.19	enough cells in well	143	143
Muc15	-0.18	enough cells in well	228	110
Vmn1r67	0.31	enough cells in well	128	101
Asb13	0.13	enough cells in well	211	141
Cd4	0.43	enough cells in well	244	164
Stag1	3.46 (active)	enough cells in well	229	172
Slc29a2	-1.76 (active)	enough cells in well	43.7	42.7
Twf2		fewer than 50 cells per well; well left out of calls	180	146
Cdc42ep2	-0.63	enough cells in well	109	166
Armcx1	0.65	enough cells in well	197	211
Ppp1r17	-1.11	enough cells in well	139	85.5
Or6c3b		fewer than 50 cells per well; well left out of calls	65.2	45.2
Cln8	-0.41	enough cells in well	221	171
Slc37a3		fewer than 50 cells per well; well left out of calls	1.88	82.6
D17H6S56E-5	-0.56	enough cells in well	338	120
B530045E10Rik	0.86	enough cells in well	262	272
Slc12a9	1.02	enough cells in well	147	124
Slc12a9		fewer than 50 cells per well; well left out of calls	85.9	51.4
Klk15	-0.96	enough cells in well	135	85.4
Mycbp2		fewer than 50 cells per well; well left out of calls	104	98.2
Fam107b		fewer than 50 cells per well; well left out of calls	200	73.5
Higd1a	1.07	enough cells in well	306	272

Individual results from the list:
Sh3bgrl2, Tnf reporter intensity, replicate 1 = 106
Eef1b2, Tnf reporter robust z-score: -0.39
1700129C05Rik, fewer than 50 cells in well = fewer than 50 cells per well; well left out of calls
Under “Tnf reporter intensity, replicate 1”, Or2a51 shows 169
